# The list shows a part of the results. Most values come without repeats; read them as rough.
# Tested on: Geomyces destructans
# Test: growth inhibition relative to DMSO control; higher = stronger growth inhibition
# Details: 10 µM; 15 °C; incubation time 10 days
row,Structure (SMILES),growth inhibition
1,OC(Cn1cncn1)(Cn1cncn1)c1ccc(F)cc1F,-10.5%
2,CC(=O)OCC(=O)[C@@]1(O)CC[C@H]2[C@@H]3CCC4=CC(=O)CC[C@]4(C)[C@H]3[C@@H](O)C[C@@]21C,-0.831%
3,NS(=O)(=O)c1cc(C2(O)NC(=O)c3ccccc32)ccc1Cl (stereo unspecified),-1.52%
4,COc1ccc(-c2cc(=O)c3c(O)c(OC)c(OC)cc3o2)cc1O,16.1%
5,CCCCCCCCCCCCCCCC(=O)OC/C=C(C)/C=C/C=C(C)/C=C/C1=C(C)CCCC1(C)C,-13.3%
6,CC(=O)OCC(=O)[C@@]1(O)CC[C@H]2[C@@H]3CCC4=CC(=O)CC[C@]4(C)[C@@]3(F)[C@@H](O)C[C@@]21C,3.91%
7,O=C(O)CCCCCCCC(=O)O,-19.8%
8,CC(=O)O[C@@H]1C[C@H]2C(C)(C)C(=O)CC[C@]2(C)[C@H]2CC[C@@]3(C)[C@H](c4ccoc4)OC(=O)[C@H]4O[C@]43[C@@]21C,-16.6%
9,CC12CCC3C(CC3(C)C)C(C)(CCC1=O)O2 (stereo unspecified),-16.3%
10,O=C(O)CN1C(=O)c2cccc3cccc(c23)C1=O,-6.3%
11,CCCCN(CCCC)CCCOC(=O)c1ccc(N)cc1,-2.05%
12,Cc1ccc(C(=O)c2ccc(CC(=O)O)n2C)cc1,-16.2%
13,COC(=O)Nc1nc2cc(C(=O)c3cccs3)ccc2[nH]1,-6.42%
14,NNCCc1ccccc1,-19%
15,CC(Cc1cccc(C(F)(F)F)c1)NCCOC(=O)c1ccccc1 (stereo unspecified),-4.65%
16,CC(=O)S[C@@H]1CC2=CC(=O)CC[C@]2(C)[C@H]2CC[C@@]3(C)[C@@H](CC[C@@]34CCC(=O)O4)[C@H]12,-27.6%
17,C[C@H](CCC(=O)O)[C@H]1CC[C@H]2[C@@H]3CC[C@H]4C[C@H](O)CC[C@]4(C)[C@H]3C[C@H](O)[C@]12C,-4.15%
18,COc1ccc(-c2cc(=O)c3ccccc3o2)cc1,-2.21%
19,CC1(C)C(O)CC(O)C2(C)C1CC(=O)C1(C)C2CCC2(C)C(C(=O)O)OC(=O)C3OC321 (stereo unspecified),-6.98%
20,COc1ccc2c(=O)c(OC)c(-c3ccccc3)oc2c1,-2.26%
21,CN1CCN(CC/C=C2/c3ccccc3Sc3ccc(S(=O)(=O)N(C)C)cc32)CC1,-24%
22,CC[C@H](/C=C/[C@@H](C)[C@H]1CC[C@H]2[C@@H]3CC=C4C[C@@H](O)CC[C@]4(C)[C@H]3CC[C@]12C)C(C)C,-5.8%

# Laid out differently: results already given
row | Structure (SMILES) | growth inhibition
8 | CC(=O)O[C@@H]1C[C@H]2C(C)(C)C(=O)CC[C@]2(C)[C@H]2CC[C@@]3(C)[C@H](c4ccoc4)OC(=O)[C@H]4O[C@]43[C@@]21C | -16.6%
9 | CC12CCC3C(CC3(C)C)C(C)(CCC1=O)O2 (stereo unspecified) | -16.3%
10 | O=C(O)CN1C(=O)c2cccc3cccc(c23)C1=O | -6.3%
11 | CCCCN(CCCC)CCCOC(=O)c1ccc(N)cc1 | -2.05%
12 | Cc1ccc(C(=O)c2ccc(CC(=O)O)n2C)cc1 | -16.2%
13 | COC(=O)Nc1nc2cc(C(=O)c3cccs3)ccc2[nH]1 | -6.42%
14 | NNCCc1ccccc1 | -19%
15 | CC(Cc1cccc(C(F)(F)F)c1)NCCOC(=O)c1ccccc1 (stereo unspecified) | -4.65%
16 | CC(=O)S[C@@H]1CC2=CC(=O)CC[C@]2(C)[C@H]2CC[C@@]3(C)[C@@H](CC[C@@]34CCC(=O)O4)[C@H]12 | -27.6%
17 | C[C@H](CCC(=O)O)[C@H]1CC[C@H]2[C@@H]3CC[C@H]4C[C@H](O)CC[C@]4(C)[C@H]3C[C@H](O)[C@]12C | -4.15%
18 | COc1ccc(-c2cc(=O)c3ccccc3o2)cc1 | -2.21%
19 | CC1(C)C(O)CC(O)C2(C)C1CC(=O)C1(C)C2CCC2(C)C(C(=O)O)OC(=O)C3OC321 (stereo unspecified) | -6.98%
20 | COc1ccc2c(=O)c(OC)c(-c3ccccc3)oc2c1 | -2.26%
21 | CN1CCN(CC/C=C2/c3ccccc3Sc3ccc(S(=O)(=O)N(C)C)cc32)CC1 | -24%
22 | CC[C@H](/C=C/[C@@H](C)[C@H]1CC[C@H]2[C@@H]3CC=C4C[C@@H](O)CC[C@]4(C)[C@H]3CC[C@]12C)C(C)C | -5.8%

# Next records:

row,Structure (SMILES),growth inhibition
1,C[C@@H]1C[C@H]2[C@@H]3C[C@H](F)C4=CC(=O)C=C[C@]4(C)[C@@]3(F)[C@@H](O)C[C@]2(C)[C@@]1(O)C(=O)CO,-31.4%
2,CC(=O)Oc1ccc2c(c1OC(C)=O)OCC1(O)Cc3c(cc(OC(C)=O)c(OC(C)=O)c3OC(C)=O)C21 (stereo unspecified),9.36%
3,COC(=O)c1cc(O)c(=O)c2c(O)c(O)ccc2c1,-2.38%
4,COc1c2occc2cc2ccc(=O)oc12,-3.47%
5,N=C(NCCCCCCNC(=N)NC(=N)Nc1ccc(Cl)cc1)NC(=N)Nc1ccc(Cl)cc1,-7.55%
6,CN1CCN(C2=Nc3ccccc3Oc3ccc(Cl)cc32)CC1,-8.52%
7,CCCCCc1c2c(cc(O)c1C(=O)O)OC(=O)c1c(cc(OC)cc1C(=O)CCCC)O2,-10.5%
8,COC1=C[C@@H](C)[C@@H]2C[C@H]3OC(=O)C[C@H]4C(C)=C(OC)C(=O)[C@H]([C@@]2(C)C1=O)[C@@]34C,0.931%
9,CCCCCCCCCCCCCCCCCCOCC(O)CO (stereo unspecified),-2.99%
10,CN(C)CCCN1c2ccccc2Sc2ccc(C(F)(F)F)cc21,-4.57%
11,CC1=C(CCC(=O)O)c2cc3nc(cc4[nH]c(cc5[nH]c(cc1n2)c(C)c5C(C)O)c(C)c4C(C)O)C(C)=C3CCC(=O)O (stereo unspecified),-15.1%
12,CC1=C(/C=C/C(C)=C/C=C/C(C)=C/C=C/C=C(C)/C=C/C=C(C)/C=C/[C@@]23O[C@]2(C)C[C@@H](O)CC3(C)C)C(C)(C)C[C@H](O)C1,-17.1%
13,COc1ccc([C@@H]2CC(=O)c3c(O)cc(O)cc3O2)cc1O,-23.4%
14,CCN(CC)CCOC(=O)C1(C2CCCCC2)CCCCC1,-3.41%
15,O=c1cc(-c2ccccc2)oc2c(O)c(O)ccc12,-24%
16,CC(N/C(=N\C#N)Nc1ccncc1)C(C)(C)C (stereo unspecified),-8.21%
17,Oc1cc(O)c2c(c1)O[C@H](c1ccc(O)c(O)c1)[C@@H](O)C2,-33.2%
18,O=C1c2c(O)cccc2Cc2cccc(O)c21,-35.5%
19,O=C1C[C@@H](c2ccccc2)Oc2cc(O)cc(O)c21,-5.75%
20,C[n+]1cccc(C(=O)[O-])c1,-1.28%
21,O=c1[nH]c(=O)n([C@H]2C[C@H](O)[C@@H](CO)O2)cc1F,-41.4%
22,Nc1ccc(C(=O)Oc2ccccc2)c(O)c1,-3.47%

row,Structure (SMILES),growth inhibition
1,NS(=O)(=O)c1cc2c(cc1Cl)NCNS2(=O)=O,-0.831%
2,CC(=O)O[C@H]1CC[C@]2(C)[C@H]3CC=C4[C@@H]5CC(C)(C)CC[C@]5(C)CC[C@@]4(C)[C@]3(C)CC[C@H]2C1(C)C [beta-AMYRIN ACETATE],-4.59%
3,COc1cc(/C=C/C(=O)O)ccc1O,2.67%
4,CN(C)CCC=C1c2ccccc2C=Cc2ccccc21,-11.5%
5,CCC(=O)O[C@H]1[C@H](O[C@@H]2[C@@H](C)[C@H](O[C@H]3C[C@@](C)(OC)[C@@H](O)[C@H](C)O3)[C@@H](C)C(=O)O[C@H](CC)[C@@](C)(O)[C@H](O)[C@@H](C)C(=O)[C@H](C)C[C@@]2(C)O)O[C@H](C)C[C@@H]1N(C)C,-5.58%
6,Nc1ncnc2c1ncn2[C@@H]1O[C@H](COP(=O)(O)O)[C@@H](O)[C@H]1O,0.983%
7,"CC1=CC(=O)CC(C)(C)C1(O)/C=C/C(C)=C\C(=O)O (mixture of isomers) [ABSCISIC ACID (cis,trans; +/-)]",-12.8%
8,C=C1CCC2C(CC2(C)C)C(=C)CC/C1=N/O (stereo unspecified),1.71%
9,C[C@@H]1C(=O)O[C@H]2C[C@@]34[C@H]5C[C@@H](C(C)(C)C)[C@]36[C@@H](OC(=O)[C@@H]6O)O[C@@]4(C(=O)O5)[C@]21O,0.397%
10,O=C(O)c1cc(O)c2c(c1)[C@H]([C@H]1c3cc(C(=O)O)cc(O)c3C(=O)c3c(O[C@@H]4O[C@H](CO)[C@@H](O)[C@H](O)[C@H]4O)cccc31)c1cccc(O[C@@H]3O[C@H](CO)[C@@H](O)[C@H](O)[C@H]3O)c1C2=O,1.23%
11,O=C(/C=C/c1ccccc1)c1c(O)cc(O)cc1O,-16%
12,COc1cc(O)c(C(C)=O)c(OC)c1,-4.92%
13,CCCCC(=O)O[C@]1(C(=O)CO)[C@@H](C)C[C@H]2[C@@H]3CCC4=CC(=O)C=C[C@]4(C)[C@@]3(F)[C@@H](O)C[C@@]21C,-31.1%
14,COc1cc(C(=O)N2CCOCC2)cc(OC)c1OC,-29.4%
15,CC(=O)OCC(=O)[C@@]1(O)CC[C@H]2[C@@H]3CCC4=CC(=O)CC[C@]4(C)[C@H]3C(=O)C[C@@]21C,-1.99%
16,COc1cc2cccc(OC)c(=O)c2c(OC)c1OC,-22%
17,CC1CCC(NC(=O)N(CCCl)N=O)CC1 (stereo unspecified),-4.92%
18,CC1=C2C(O)C(=O)OC3CC4C(C)(C)C(=O)C=C[C@]4(C)C(CC1)[C@]23C (stereo partly specified),-16.6%
19,Oc1ccc(O)cc1,-26.9%
20,COC1=C(O)C(=O)c2c(cc3oc(C(C)=O)c(O)c3c2O)C1=O,-10.3%
21,CC(C)(O)CC[C@@H](O)[C@](C)(O)[C@H]1CC[C@@]2(O)C3=CC(=O)[C@@H]4C[C@@H](O)[C@@H](O)C[C@]4(C)[C@H]3CC[C@]12C,-2.52%
22,Nc1ccc(S(=O)(=O)Nc2ccc(Cl)nn2)cc1,-4.92%

row,Structure (SMILES),growth inhibition
1,Cc1ccc(/C(=C\CN2CCCC2)c2ccccn2)cc1,-28.9%
2,CC(=O)O[C@H]1CC[C@]2(C)[C@H]3CC[C@@]4(C)[C@H](c5ccoc5)OC(=O)[C@H]5O[C@]54[C@]3(C)[C@H](OC(C)=O)C[C@H]2C1(C)C [3beta-ACETOXYDEOXODIHYDROGEDUNIN],1.25%
3,Cc1ccc2c(c1)CC[C@H]1CC(=O)CC[C@]21C,-12.9%
4,COc1ccc(C2CC(=O)c3ccc(OC)cc3O2)cc1 (stereo unspecified),-4.4%
5,CNCCC=C1c2ccccc2CCc2ccccc21,-13.8%
6,Cc1c(O)cc(O)c2c(=O)c(-c3ccc(O)cc3)coc12,-6.58%
7,C[C@]12CC[C@@H](O)C[C@H]1CC[C@@H]1[C@@H]2C(=O)C[C@@]2(C)[C@H]1CC[C@]2(O)C(=O)CO,-1.69%
8,CC(=O)Nc1ccc(S(=O)(=O)Nc2ccc([N+](=O)[O-])cc2)cc1,-29.7%
9,CCc1cc(C(N)=S)ccn1,-5.08%
10,NC(=O)c1ncn([C@@H]2O[C@H](CO)[C@@H](O)[C@H]2O)c1O,-29.2%
11,Cc1ccc(C(C)C)cc2c(C)ccc1-2,-1.9%
12,CC[C@]12CCCN3CCc4c(n(c5ccccc45)C(=O)C1)[C@@H]32,-21.6%
13,COc1cc(OC)c2c3c1C(=O)c1c(OC)cc(C)c4c(OC)cc(c-3c14)C(C)(C)C2=O,-10.4%
14,Cc1occc(=O)c1/C=C/O,-12.5%
15,CCn1cc(C(=O)O)c(=O)c2cc(F)c(N3CCNC(C)C3)c(F)c21 (stereo unspecified),-2.53%
16,CS(=O)(=O)Nc1ccc([N+](=O)[O-])cc1Oc1ccccc1,-7.87%
17,CCOC(=O)CCC(=O)O[C@H]1[C@H](O[C@@H]2[C@@H](C)[C@H](O[C@H]3C[C@@](C)(OC)[C@@H](O)[C@H](C)O3)[C@@H](C)C(=O)O[C@H](CC)[C@@](C)(O)[C@H](O)[C@@H](C)C(=O)[C@H](C)C[C@@]2(C)O)O[C@H](C)C[C@@H]1N(C)C,2.22%
18,C[C@]12C=CC(=O)C=C1CC[C@@H]1[C@@H]2C(=O)C[C@@]2(C)[C@H]1CC[C@]2(O)C(=O)CO,-23.5%
19,CC1(C)[C@@H](O[C@H]2O[C@H](C(=O)O)[C@@H](O)[C@H](O)[C@H]2O[C@@H]2O[C@H](C(=O)O)[C@@H](O)[C@H](O)[C@H]2O)CC[C@]2(C)[C@H]3C(=O)C=C4[C@@H]5C[C@@](C)(C(=O)O)CC[C@]5(C)CC[C@@]4(C)[C@]3(C)CC[C@@H]12,11.9%
20,COC(=O)C[C@H]1C(C)(C)[C@@H](OC(C)=O)[C@@H]2CC3=C4CC(=O)O[C@@H](c5ccoc5)[C@]4(C)CC[C@@H]3[C@@]1(C)C2=O,-17.7%
